Data on 2 molecules can be found in patent US20120014870A1 (FORERUNNER PHARMA RESEARCH, published 2012).

Results are given in words; binding and its absence hold for the method and conditions named. Binding can be weak; no strength is given.

Assay [1] addresses mouse LGR7 expressed on BaF3 cells (HA-mLGR7/BaF3) (mouse). Briefly: FACS analysis of HA-mLGR7/BaF3 (geometric mean values). A general note: In flow cytometry, cells or beads pass a laser one at a time.
For assay [2] the target is unchanged. Briefly: flow cytometry on HA-mLGR7/BaF3 cells.

B1: 22DA17 (antibody, IgG2b, V domains shown)
VH: QVQLQQSGAELVRPGVSVKLSCKASGYSLTTYWMNWVKQRPGQGLEWIGMIHPSDSETVINQKFKDKATLTVDKSSSTAYMQLSSPTSEDSAVYYCARWDYDYYFDYWGQGTTLTVSS
VL: DVLMTQTPLSLPVSLGDQASISCRSSQSIVHSNGNTYLEWYLQKPGQSPNLLIYKVSNRFSGVPDRFSGSGSGTDFTLKISRVEAEDLGVYYCFQGSHVPFTFGSGTKLEIK
notes: Mouse hybridoma antibody, isotype IgG2b; also called Bio-22DA17 (biotinylated form)
Regarding B1, the binding entry in assay [1] and in assay [2] was “binds” each time.

B2: 22DA23 (antibody, IgG1, V domains shown)
VH: EIQLQQSRPELVRPGASVKVSCQASGYAFTNYNMYWVKQSHGKSLEWIGYIDPYNDDTTYNQKFKGKATLTVDKSSSTAYMHLNSLTSEDSAVFYCARFRLGYYAMDYWGQGASVTVSS
VL: DIVLTQSPASLAVSLGQRATISCKASQSVDYDLDSYMNWYQQKPGQPPKLLIYVASNLESGIPARFSGSGSGTDFTLNIHPVEEEDAATYYCQQSNEDPFTFGSGTKLEIK
notes: Mouse hybridoma antibody, isotype IgG1; also called anti-human LGR7 monoclonal antibody 22DA23
Turning to B2, the binding result in assay [1] and in assay [2] was “binds” throughout.
